Drawing on publication PMC4294363, this text covers binding for one substance.

Protein sequences, listed by entry. Tags and fused reporters are not part of them. Lines headed by an entry give the natural chain unless they say otherwise; changes in a name come on top.
UniProt Q9BST9: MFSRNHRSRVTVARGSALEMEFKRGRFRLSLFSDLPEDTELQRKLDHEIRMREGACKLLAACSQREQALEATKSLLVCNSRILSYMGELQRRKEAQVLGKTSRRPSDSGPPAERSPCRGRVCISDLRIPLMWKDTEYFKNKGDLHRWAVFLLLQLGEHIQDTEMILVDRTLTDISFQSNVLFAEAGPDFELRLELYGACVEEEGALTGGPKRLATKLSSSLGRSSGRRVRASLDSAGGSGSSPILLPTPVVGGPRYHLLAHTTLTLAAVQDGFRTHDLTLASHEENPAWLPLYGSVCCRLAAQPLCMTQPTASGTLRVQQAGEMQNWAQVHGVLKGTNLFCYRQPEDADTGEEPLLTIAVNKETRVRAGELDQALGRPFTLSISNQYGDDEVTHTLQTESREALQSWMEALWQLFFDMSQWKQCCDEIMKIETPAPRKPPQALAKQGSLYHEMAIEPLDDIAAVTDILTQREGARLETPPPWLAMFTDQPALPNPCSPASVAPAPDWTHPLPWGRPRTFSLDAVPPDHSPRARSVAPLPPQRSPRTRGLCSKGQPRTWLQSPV
UniProt P61586: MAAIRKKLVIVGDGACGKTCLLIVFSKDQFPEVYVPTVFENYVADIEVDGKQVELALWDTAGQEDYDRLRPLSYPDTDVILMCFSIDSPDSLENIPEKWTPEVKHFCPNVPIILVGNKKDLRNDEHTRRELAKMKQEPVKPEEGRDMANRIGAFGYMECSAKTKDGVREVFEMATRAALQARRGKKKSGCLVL

The target of this assay is Glutathione-S-transferase fused Rhotekin binding domain (UniProt Q9BST9). The experiment in a line: pull-down; GST-RBD or GST-PBD on agarose beads incubated with total proteins extracted from tumor tissue (metformin-treated or untreated xenograft mice) for 1 h at 4°C, washed with lysis buffer, Western blotted for RhoA, Cdc42 and Rac1; only the target purified. (In general: A western blot detects proteins with antibodies after separation by electrophoresis.)

These are yes or no findings as the source states them, for the method shown. In cells and extracts the contact can be indirect. Binding can be weak; no strength is given.

On to RhoA (from UniProt P61586 1-193), for which the binding result is recorded as “binds”.
